Measured values taken from article PMC6093649.
No constants are given. Whether binding was seen depends on the method and setting. Some entries that bind do so weakly or less than the wild type. Where a sequence is shown, tags or fusion partners need not be part of it.

Biological target: FLAG-tagged Chp2 (F-Chp2) expressed from the endogenous chp2+ locus (S. pombe) (UniProt O42934)
Test: SEC; native whole-cell lysate of S. pombe on HiLoad 16/600 Superdex 200 (50 mM Tris-HCl pH 7.5, 150 mM NaCl, 0.05% Tween 20, 2 mM DTT, 4°C); fractions analysed by western blotting

B1: FLAG-tagged Chp2 (F-Chp2) expressed from the endogenous chp2+ locus (protein, UniProt O42934 1-380)
chain: MVKSADLDLMNSIISESDENFSPPPFTVEEAENSINNKSSTASLESPQNGSWHPSLYGLSVPEKTHIQNSLDLYSHGNSGSQKTHNVSFSCEIRKVKSSKLSPISNMEDSEDKKEEDESSSYKNEFKSSSSASVSSNFEKTSGSDDHNSQSPVPLNEGFEYIASSGSEDKNSDEEFAVEMILDSRMKKDGSGFQYYLKWEGYDDPSDNTWNDEEDCAGCLELIDAYWESRGGKPDLSSLIRLTRSRARSSNEASYVEKDESSNSDDSISYKRRRSRNAANRITDYVDSDLSESSMKEKQSKIEKYMKSDKSSKNFKPPFQKKSWEDLVDCVKTVQQLDNGKLIAKIKWKNGYVSTHDNIIIHQKCPLKIIEYYEAHIKFT
For B1, the binding was “binds”.
